{"source": "PubChem BioAssay AID485314", "about": "(National Center for Advancing Translational Sciences (NCATS), 2010)", "note": "Out of some 340,000 compounds screened, about 4,500 (1.3%) were called active. Inconclusive results, whose numbers are uncertain, are shown with a selection of clear calls. Calls come from the whole dose curve; as a rule, active = well fitted inhibition curve with a large enough effect; inconclusive = small, poorly fitted or top-dose-only effect, or another doubt; inactive = no such curve, though single readings can be large or run the other way. Where the call is inconclusive, the potency comes from a doubtful curve fit. Potency is the fitted concentration of half-maximal effect."}
{"target": "DNA polymerase beta (Homo sapiens) (UniProt P06746)", "experiment": "qHTS Assay for Inhibitors of DNA Polymerase Beta", "settings": "Pol beta primer extension/strand displacement, fluorescence kinetic; series mostly up to 114 µM", "how_it_was_run": "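Pol beta (10 nM) and compounds were preincubated 15 min at room temperature, then 50 nM substrate (final) started primer extension/strand displacement. Reads were taken at 0 and 10 min; concentration-response data were fitted to a four-parameter Hill equation.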"}
{"smiles": "Cn1cc(Br)c(C(=O)N/N=C/c2cc3ccccc3nc2Cl)n1", "Potency": "inactive"}
{"smiles": "Cc1ccc2nc(NC(=O)C3CCCN(S(=O)(=O)c4cnc[nH]4)C3)sc2c1", "note": "(configuration not stated)", "Potency": "inconclusive: 89.1 µM [inhibitor, single point]"}
{"smiles": "CC(=O)c1ccc(NC(=O)c2nc(-c3ccc(Cl)cc3)n3c2CCCCC3)cc1", "Potency": "inconclusive: 89.1 µM [inhibitor, partial curve, poor fit]"}
{"smiles": "O=C(Nc1ccc(Cl)cn1)c1ccc2[nH]c(=O)c(=O)[nH]c2c1", "Potency": "inconclusive: 79.4 µM [inhibitor, single point]"}
{"smiles": "Cc1cccc(-c2cc3nc(C)cc(NCCCN(C)C)n3n2)c1", "Potency": "inconclusive: 56.2 µM [inhibitor, partial curve, poor fit]"}
{"smiles": "COc1ccc2c(c1)c(=O)oc1c(C)c(OCc3cc(C(=O)O)oc3C)ccc12", "Potency": "active: 35.5 µM"}
{"smiles": "C=CCC(C(=O)OC)(C(=O)OC)c1ccccc1[N+](=O)[O-]", "Potency": "inactive"}
{"smiles": "Cc1ccc(-c2csc3ncn(CC(=O)O)c(=O)c23)cc1C", "Potency": "inconclusive: 56.2 µM [inhibitor, single point]"}
{"smiles": "N=C1SC(c2ccccc2)C(=O)N1c1ncc(Cc2ccccc2)s1", "note": "(configuration not stated)", "Potency": "active: 50.1 µM"}
{"smiles": "COc1ccc(S(=O)(=O)N2CCN(CC(=O)c3ccc(O)c(O)c3)CC2)cc1", "Potency": "inconclusive: 7.94 µM [inhibitor, full curve]"}
{"smiles": "COC(=O)C(C)NC(=O)C1CCCN1S(=O)(=O)c1cc(C)c(Cl)cc1C", "note": "(configuration not stated)", "Potency": "inconclusive: 89.1 µM [inhibitor, single point]"}
{"smiles": "Oc1ccc(/C=N/n2c(COc3ccccc3)n[nH]c2=S)cc1O", "Potency": "active: 6.31 µM"}
{"smiles": "COC(=O)Cn1c(=NC(=O)c2ccc([N+](=O)[O-])s2)sc2cc(Br)ccc21", "Potency": "inconclusive: 79.4 µM [inhibitor, partial curve]"}
{"smiles": "Cc1ccc(N2C(=O)C(CC(=O)Nc3cccc(F)c3)N(CCc3ccccc3F)C2=O)cc1", "note": "(configuration not stated)", "Potency": "inconclusive: 70.8 µM [inhibitor, partial curve, poor fit]"}
{"smiles": "Cc1cc(C=C2C(=O)c3ccccc3C2=O)c(C)n1-c1ccc(C(=O)O)cc1", "Potency": "inconclusive: 50.1 µM [inhibitor, partial curve]"}
{"smiles": "Cc1cc(C)c(OCC(=O)N2CC=C(c3ccccc3)CC2)c(C)c1", "Potency": "inactive"}
{"smiles": "O=C(O)c1cc(C(=O)O)cc(-c2ccc(/C=c3/sc4nc5ccccc5n4c3=O)o2)c1", "Potency": "active: 4.47 µM"}
{"smiles": "CCNC(=O)CSc1nc2ccccc2c(=O)n1CCCOC(C)C", "Potency": "inconclusive: 4.47 µM [inhibitor, full curve]"}
{"smiles": "Cc1ccc(C(=O)Nc2cccc(C(F)(F)F)c2)cc1NC(=O)c1nccn1C", "Potency": "active: 39.8 µM"}
{"smiles": "COc1ccc(N2CCN(C(=O)CSc3nnc(C)c(=O)[nH]3)CC2)cc1", "Potency": "inconclusive: 15.8 µM [inhibitor, full curve, poor fit]"}
{"smiles": "Cc1onc(-c2ccccc2Cl)c1C(=O)NCc1ccco1", "Potency": "active: 28.2 µM"}
{"smiles": "COc1ccc(C(=O)Nc2ccncc2)cc1OC", "Potency": "inactive"}
{"smiles": "O=C(CN1CCCCC1)Nc1ccc(N2CCCCCC2)cc1", "Potency": "inconclusive: 89.1 µM [inhibitor, single point]"}
{"smiles": "COc1ccccc1NC(=O)Nc1ccccc1SC", "Potency": "inconclusive: 3.55 µM [inhibitor, single point]"}
{"smiles": "O=C1c2cccc3cccc(c23)C(=O)N1CCCCCc1n[nH]c(=S)o1", "Potency": "inactive"}
{"smiles": "Cc1cccc2sc(N(Cc3cccnc3)C(=O)CCOc3ccccc3)nc12", "Potency": "inactive"}
{"smiles": "O=C(COc1ccc(Cl)cc1)Nc1ccccc1C(=O)NCc1cccnc1", "Potency": "inconclusive: 28.2 µM [inhibitor, full curve]"}
{"smiles": "CC(=O)NS(=O)(=O)c1ccc(NS(=O)(=O)c2ccc(F)cc2)cc1", "Potency": "inconclusive: 3.98 µM [inhibitor, single point]"}
{"smiles": "CC1(C(=O)O)CCC(C(=O)NC2CCCCC2)C1(C)C", "note": "(configuration not stated)", "Potency": "active: 89.1 µM"}
{"smiles": "CCN(CC)c1ccc(/C=C(\\C#N)C(=O)c2ccc(Br)cc2)cc1", "Potency": "active: 39.8 µM"}
{"smiles": "CC(C)C1N(C(=O)CN2CCCCC2)CCN1S(=O)(=O)c1ccccc1", "note": "(configuration not stated)", "Potency": "inactive"}
{"smiles": "O=C(NCc1ccccc1)C(=O)NCC1OCCN1S(=O)(=O)c1ccc2c(c1)OCCO2", "note": "(configuration not stated)", "Potency": "inconclusive: 89.1 µM [inhibitor, single point]"}
{"smiles": "Cc1oc(-c2ccc(Cl)cc2)cc1-c1nn2c(-c3ccco3)nnc2s1", "Potency": "active: 20 µM"}
{"smiles": "Cc1cccc(C)c1NC(=O)COC(=O)C1Cc2ccccc2CN1C(=O)c1ccccc1", "note": "(configuration not stated)", "Potency": "inconclusive: 28.2 µM [inhibitor, full curve]"}
{"smiles": "Cn1cc(S(=O)(=O)N2CCCC2)cc1C(=O)N1CCN(c2cccc(Cl)c2)CC1", "Potency": "inconclusive: 0.501 µM [inhibitor, full curve, poor fit]"}
{"smiles": "Cc1cc(C)cc(C(=O)NCCc2csc(-c3ccc(C(F)(F)F)cc3)n2)c1", "Potency": "inconclusive: 89.1 µM [inhibitor, single point]"}
{"smiles": "CCC(Sc1nnc2c(n1)[nH]c1ccccc12)C(=O)Nc1ccccc1OC", "note": "(configuration not stated)", "Potency": "inconclusive: 20 µM [inhibitor, single point]"}
{"smiles": "CCc1ccccc1S(=O)(=O)Cc1ccc(C(=O)NCCc2ccc(C)cc2)o1", "Potency": "inactive"}
{"smiles": "O=C(O)c1ccccc1N/N=C\\c1ccnc2ccccc12", "Potency": "inconclusive: 31.6 µM [inhibitor, partial curve]"}
{"smiles": "Cc1ccc(Cn2c(SCC(=O)N/N=C/c3ccc(C)o3)nc3ccccc32)cc1", "Potency": "inconclusive: 25.1 µM [inhibitor, full curve]"}
{"smiles": "Cc1c(C(=O)OCC2CCCCC2)[nH]c2c1C(=O)CC(c1ccccc1Cl)C2", "note": "(configuration not stated)", "Potency": "inactive"}
{"smiles": "COc1ccc(-c2nnc(SCC(=O)NC(=O)NCc3ccco3)o2)cc1", "Potency": "inconclusive: 0.708 µM [inhibitor, full curve]"}
{"smiles": "Cc1ccnc(NC(=O)c2ccc3c(c2)OCO3)c1", "Potency": "inactive"}
{"smiles": "CCS(=O)(=O)N1CCc2cc(C(=O)Nc3cccc(C(C)=O)c3)ccc21", "Potency": "inactive"}
{"smiles": "CCOC(=O)C1CCCN(C2CC(=O)N(c3ccc(N4C(=O)CC(N5CCCC(C(=O)OCC)C5)C4=O)cc3)C2=O)C1", "note": "(configuration not stated)", "Potency": "inconclusive: 14.1 µM [inhibitor, full curve]"}
{"smiles": "CCCCN(CC)C(=O)CCNS(=O)(=O)c1ccc2c(c1)c(=O)n(C)c(=O)n2C", "Potency": "inactive"}
{"smiles": "CCCOc1cccc(C2c3c(-c4ccccc4O)n[nH]c3C(=O)N2Cc2ccco2)c1", "note": "(configuration not stated)", "Potency": "inconclusive: 39.8 µM [inhibitor, partial curve]"}
{"smiles": "CCCn1c2ccccc2c2cnn(CC(=O)O)c(=O)c21", "Potency": "inconclusive: 0.158 µM [inhibitor, full curve, poor fit]"}
{"smiles": "Cc1cc(=O)n2[nH]c(C)c(-c3ccc(Cl)cc3)c2n1", "Potency": "inconclusive: 28.2 µM [inhibitor, full curve]"}
{"smiles": "Cc1cc(N2CCOCC2)ccc1/C=C1/SC(=O)NC1=O", "Potency": "inactive"}
{"smiles": "COc1cc(/C=N/Nc2nn3cnnc3c3ccccc23)ccc1O", "Potency": "active: 50.1 µM"}
{"smiles": "CCCNC(=O)Cn1c(=O)c2cccn2c2cccnc21", "Potency": "inactive"}
{"smiles": "COc1ccccc1OCCOc1ccc(/C=C2\\C(=N)N3N=C(S(C)(=O)=O)SC3=NC2=O)cc1", "Potency": "inconclusive: 28.2 µM [inhibitor, single point]"}
{"smiles": "O=C(NNC(=O)C1CCN(Cc2cccc(F)c2)CC1)c1cccs1", "Potency": "inactive"}
{"smiles": "O=C(Nc1ncccc1Cl)C(Sc1ccccc1)c1ccccc1", "note": "(configuration not stated)", "Potency": "inconclusive: 3.98 µM [inhibitor, partial curve]"}
{"smiles": "Cc1[nH]nc(-c2ccc(O)cc2O)c1-c1nc2ccccc2s1", "Potency": "inconclusive: 89.1 µM [inhibitor, single point]"}
{"smiles": "CC(C(=O)N1CCN=C1c1ccccc1)N1C(=O)c2ccccc2C1=O", "note": "(configuration not stated)", "Potency": "inconclusive: 100 µM [inhibitor, single point]"}
{"smiles": "N#C/C(=C\\c1ccc[nH]1)C(=O)Nc1ccccc1[N+](=O)[O-]", "Potency": "inactive"}
{"smiles": "COC(=O)c1ccc(NC(=O)c2ccccc2)o1", "Potency": "inconclusive: 0.141 µM [inhibitor, full curve, poor fit]"}
{"smiles": "COc1ccc(-c2nnc(NC(=O)CS(=O)(=O)c3ccc(Cl)cc3)o2)c(OC)c1", "Potency": "inconclusive: 11.2 µM [inhibitor, single point]"}
{"smiles": "Cc1ccc(Cl)cc1N1CCN(C(=O)c2ccc(CS(=O)c3ccccc3)o2)CC1", "note": "(configuration not stated)", "Potency": "inconclusive: 79.4 µM [inhibitor, single point]"}
{"smiles": "O=C(/C=C/c1ccco1)Nc1nc(-c2ccccn2)cs1", "Potency": "active: 25.1 µM"}
{"smiles": "Cc1ccccc1Cn1nnc(-c2ccc(C(=O)O)cc2)n1", "Potency": "inconclusive: 14.1 µM [inhibitor, partial curve]"}
{"smiles": "COc1ccc(S(=O)(=O)N2CCC(C(=O)NCc3cccnc3)CC2)cc1Cl", "Potency": "inconclusive: 3.98 µM [inhibitor, single point]"}
{"smiles": "O=C(COc1ccc(F)cc1Br)N1CCN(S(=O)(=O)/C=C/c2ccccc2)CC1", "Potency": "inconclusive: 89.1 µM [inhibitor, single point]"}
{"smiles": "COc1ccc(CC(=O)Nc2ccc(S(=O)(=O)Nc3cc(C)on3)cc2)cc1OC", "Potency": "inactive"}
{"smiles": "O=C(Cn1nc(-c2ccc(Cl)cc2)c2ccccc2c1=O)Nc1cccc(C(F)(F)F)c1", "Potency": "inactive"}
{"smiles": "COC(=O)c1scc(-c2ccc(C)cc2)c1S(=O)(=O)N1CCN(c2ccc(C)cc2C)CC1", "Potency": "inactive"}
{"smiles": "Cc1ccc(-c2nnn(CC(=O)N(c3ccccc3)C(C(=O)NCC3CCCO3)c3ccc(F)cc3)n2)o1", "note": "(configuration not stated)", "Potency": "inconclusive: 8.91 µM [inhibitor, partial curve]"}
{"smiles": "Oc1c(Cl)cc(CN2CCCCC2)c2cccnc12", "Potency": "inactive"}
{"smiles": "C/C(=N/NC(=O)c1cc2ccccc2cc1O)c1ccco1", "Potency": "active: 63.1 µM"}
{"smiles": "Cc1ccc(C(=O)NC(=S)NNC(=O)c2ccc([N+](=O)[O-])cc2)cc1", "Potency": "inconclusive: 100 µM [inhibitor, single point]"}
